Assay: Cholesterol, HDL and LDL/VLDL in serum of MCF-7 xenograft mice
Type: in vivo
Conditions: 2 mg/kg PL, 5 mg/kg AP; for total cholesterol in serum (AMPLEX Red): 21 days, compared to Vehicle; for total cholesterol levels in serum (ABNOVA kit): compared to Vehicle group

| Compound | total cholesterol in serum (AMPLEX Red) | total cholesterol levels in serum (ABNOVA kit) |
| --- | --- | --- |
| CC1=CC(=O)c2c(O)cccc2C1=O [PL, 5-hydroxy-2-methyl-1,4-naphthoquinone, reference compound] | Negligible alterations | slightly lower |
| CC(=O)Oc1cccc2c1C(=O)C=C(C)C2=O [AP, Acetyl Plumbagin] | significant increase | elevated |
